Data as given in the supplement of paper PMC9433722.
Counter-ions that a name gives are not always drawn. The list shows a part of the results. Repeats are few or missing, and single values can be far off.

Legend:
Saos-2 = experiment: cell viability (CCK-8) relative to DMSO control (% of control); higher = less cytotoxic; details: 10 µM; 48 h
U2OS = experiment: as above; details: 10 µM; 48 h

| SMILES | cell viability (Saos-2) | cell viability (U2OS) |
| --- | --- | --- |
| COc1c(C)c2c(c(O)c1C/C=C(\C)CCC(=O)OCCN1CCOCC1)C(=O)OC2 [Mycophenolate Mofetil] | 42.3 | 79.6 |
| CC(=O)Oc1ccccc1C(=O)Nc1ncc([N+](=O)[O-])s1 [Nitazoxanide] | 106 | 117 |
| CN(C)C(=N)NC(=N)N [Metformin] | 54 | 110 |
| COc1cc(C(C)=O)ccc1OCCCN1CCC(c2noc3cc(F)ccc23)CC1 [Iloperidone] | 106 | 102 |
| CCCCS(=O)(=O)N[C@@H](Cc1ccc(OCCCCC2CCNCC2)cc1)C(=O)O [Tirofiban·HCl monohydrate] | 107 | 104 |
| CO[C@H]1/C=C/O[C@@]2(C)Oc3c(C)c(O)c4c(O)c(c(/C=N/N5CCN(C)CC5)c(O)c4c3C2=O)NC(=O)/C(C)=C\C=C\[C@H](C)[C@H](O)[C@@H](C)[C@@H](O)[C@@H](C)[C@H](OC(C)=O)[C@@H]1C [Rifampicin] | 55.5 | 109 |
| S=c1[nH]cnc2nc[nH]c12 [6-Mercaptopurine Monohydrate] | 85.9 | 72 |
| C/C(=C\C(=O)OCCCCCCCCC(=O)O)C[C@@H]1OC[C@H](C[C@@H]2O[C@H]2[C@@H](C)[C@H](C)O)[C@@H](O)[C@H]1O [Mupirocin] | 122 | 102 |
| COc1ccc(CC(C)NCC(O)c2ccc(O)c(NC=O)c2)cc1 (stereo not given) [Formoterol] | 104 | 102 |
| CN(C)CCC=C1c2ccccc2C=Cc2ccccc21 [Cyclobenzaprine·HCl] | 104 | 87.3 |
